Test results as given in PubChem BioAssay AID1117319 (Southern Research Institute, 2015).
Hit rate of the full screen: of about 260,000 compounds, about 1,500 (0.58%) were called active. Inconclusive means that the source gave no clear call. Such entries were picked first, then a sample of the others.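 How the source made its calls: active means inhibition above a set limit at one or more doses, reproduced on every date tested; inconclusive means results disagree between test dates, or hit never tested in dose response; inactive means the rest.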

Chains of the proteins cited; added tags and fusions are not shown. Lines headed by an entry give the natural chain unless they say otherwise; changes in a name come on top.
UniProt P69720: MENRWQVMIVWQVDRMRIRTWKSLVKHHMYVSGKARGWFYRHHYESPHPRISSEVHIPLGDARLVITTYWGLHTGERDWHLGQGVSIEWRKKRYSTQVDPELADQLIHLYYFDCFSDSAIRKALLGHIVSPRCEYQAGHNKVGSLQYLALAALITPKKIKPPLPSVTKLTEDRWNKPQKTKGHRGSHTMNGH
UniProt P69721: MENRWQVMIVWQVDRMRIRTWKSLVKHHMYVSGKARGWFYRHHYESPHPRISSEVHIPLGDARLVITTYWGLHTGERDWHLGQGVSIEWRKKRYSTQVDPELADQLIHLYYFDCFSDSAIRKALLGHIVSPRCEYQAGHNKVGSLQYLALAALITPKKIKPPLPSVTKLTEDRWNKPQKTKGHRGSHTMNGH
UniProt P69722: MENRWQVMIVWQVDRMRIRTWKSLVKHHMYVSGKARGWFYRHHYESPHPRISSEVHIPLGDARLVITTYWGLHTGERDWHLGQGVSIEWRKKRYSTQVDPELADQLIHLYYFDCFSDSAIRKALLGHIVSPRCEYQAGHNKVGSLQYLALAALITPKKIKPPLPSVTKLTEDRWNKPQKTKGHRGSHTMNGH
UniProt P69723: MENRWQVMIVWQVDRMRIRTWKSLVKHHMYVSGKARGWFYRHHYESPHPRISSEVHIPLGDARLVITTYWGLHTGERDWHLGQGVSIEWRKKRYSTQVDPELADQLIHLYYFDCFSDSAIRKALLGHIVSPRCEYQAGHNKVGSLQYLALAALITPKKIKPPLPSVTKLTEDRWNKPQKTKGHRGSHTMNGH
UniProt Q9HC16: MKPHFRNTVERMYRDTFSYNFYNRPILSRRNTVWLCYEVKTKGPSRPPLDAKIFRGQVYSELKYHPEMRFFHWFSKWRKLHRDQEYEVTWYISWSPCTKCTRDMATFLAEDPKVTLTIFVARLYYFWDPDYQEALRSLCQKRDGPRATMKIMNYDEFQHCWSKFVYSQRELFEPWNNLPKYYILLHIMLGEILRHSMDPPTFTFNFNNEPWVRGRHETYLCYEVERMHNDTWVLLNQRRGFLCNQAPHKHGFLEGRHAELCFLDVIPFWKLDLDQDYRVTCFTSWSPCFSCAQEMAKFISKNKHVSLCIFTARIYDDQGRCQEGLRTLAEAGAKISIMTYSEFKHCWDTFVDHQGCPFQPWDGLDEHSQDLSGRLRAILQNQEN

target: Virion infectivity factor (Human immunodeficiency virus type 1 group M subtype B (isolate BH10)) + Virion infectivity factor (Human immunodeficiency virus type 1 group M subtype B (isolate BRU/LAI)) + Virion infectivity factor (Human immunodeficiency virus type 1 group M subtype B (isolate PCV12)) + Virion infectivity factor (Human immunodeficiency virus type 1 group M subtype B (isolate HXB2)) + DNA dC->dU-editing enzyme APOBEC-3G (Homo sapiens) (UniProt P69720+P69721+P69722+P69723+Q9HC16); assay: inhibitors of Vif binding to APOBEC3G peptide, primary screen, biochemical, TR-FRET, GST-Vif 1-94, biotin-A3G peptide, dose response retest (AID 1117319); conditions: hits give high values;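 further: Vif residues 1-94 fused to GST binding biotinylated APOBEC3G peptide 110-148; 0% = full assay without inhibitor and 100% = GST in place of GST-Vif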

| Structure (SMILES) | inhibition |
| --- | --- |
| CCOC(=O)C1(Cc2ccccc2Cl)CCN(C(=O)CCn2ccnc2C)CC1 | inconclusive: 48% |
| CC(=O)c1ccc(OCC(=O)OCC(=O)Nc2sccc2C(N)=O)cc1 | inconclusive: 37.4% |
| CCS(=O)(=O)c1ccc(O)c(NC(=O)Nc2ccc(C(C)(C)C)cc2)c1 | inconclusive: 42.2% |
| O=[N+]([O-])c1ccc(N=Nc2ccc(O)cc2O)cc1 | inactive: 27.8% |
| O=C(COC(=O)c1cnccn1)c1ccccc1 | inconclusive: 47.6% |
| COn1c(-c2ccccc2)nc2c1CCc1c-2no[n+]1[O-] | inactive: 3.61% |
| CN(C(=O)Cc1c(C(=O)O)n(C)c2ccccc12)c1ccc(F)cc1 | inconclusive: 35.2% |
| Cc1ccnc(SCC(=O)N2CCC(C(N)=O)CC2)n1 | inconclusive: 33.5% |
| CC1(C)OC(c2ccccc2)=C/C(=C/C=C2C(=O)c3ccccc3C2=O)O1 | inconclusive: 36.1% |
| CN(c1ccccc1C(=O)NCc1ccco1)S(C)(=O)=O | inconclusive: 47.8% |
| COc1ccc(CNC(=O)CSc2ncnc3ccccc23)cc1OC | inactive: -8.65% |
| CN1C(=S)SC(/[N+]([O-])=C/c2ccc(Cl)cc2)C1(C)C (stereo unspecified) | inconclusive: 50.2% |
| O=C(OCC(=O)N1CCN(c2ccccc2)CC1)c1ccc2ncsc2c1 | inconclusive: 37% |
| CCOC(=O)C1C(=O)Oc2ccc3ccccc3c2C1C1CCOC1=O (stereo unspecified) | inconclusive: 38.2% |
| O=c1ccnc(SCc2ccccc2Cl)[nH]1 | inconclusive: 34.5% |
| O=C(O)CNC(=O)c1ccc(N2CCOCC2)cc1[N+](=O)[O-] | inconclusive: 33.5% |
| O=C(CSC(=S)N1CCN(c2ccccc2)CC1)Nc1nc(-c2ccccc2)c(-c2ccccc2)o1 | inconclusive: 55.3% |
| CCN(C(=O)COc1ccc(C)nc1[N+](=O)[O-])C1CCS(=O)(=O)C1 (stereo unspecified) | inconclusive: 38% |
| Cc1ccc(NC(=O)C2C3C=CC4(CN(Cc5cccnc5)C(=O)C24)O3)cc1 (stereo unspecified) | inconclusive: 37.3% |

| Structure (SMILES) | inhibition |
| --- | --- |
| CCn1c(=O)cc(OCC(=O)NCCCN2CCC(C)CC2)c2ccccc21 | inconclusive: 41% |
| CON(C)c1nc(OCCNC(=O)OCc2ccc(Cl)cc2C)nc(N(C)C)n1 | inconclusive: 41.2% |
| COc1cc(/C=N/NC(=S)Nc2cccnc2)cc(OC)c1OC | inconclusive: 45.9% |
| Cc1cc(=O)[nH]c(SCC2COC3(CCCCC3)O2)n1 (stereo unspecified) | inconclusive: 49.5% |
| COc1ccc(S(=O)(=O)N(C)c2ccc(C(=O)N3CCCCC3)cc2)cc1OC | inconclusive: 43.4% |
| O=C(NCC(c1ccco1)N1CCOCC1)c1cccc([N+](=O)[O-])c1 (stereo unspecified) | inconclusive: 35.9% |
| Oc1ccc(N=Cc2cc(Br)c(N3CCOCC3)o2)cc1 | inconclusive: 55.8% |
| O=c1cc(O)n(-c2ccc(Cl)cc2)c(=S)[nH]1 | inactive: -0.58% |
| N#Cc1c(NCCCO)nc(-c2ccco2)c2c1CCCC2 | inconclusive: 46.3% |
| COC(=O)/C=C1\SC(=NC(=O)c2cccc(Cl)c2)NC1=O | inconclusive: 52.2% |
| C/C(=N\NC(=O)c1c[nH]c2ccccc12)c1ccc(C)o1 | inconclusive: 33% |
| CCN1CC(CN(C)Cc2nc(Cc3ccccc3)no2)CC1=O (stereo unspecified) | inconclusive: 33.1% |
| CN(C)c1ccc(NC(=O)COC(=O)CNC(=O)c2cccs2)cc1 | inconclusive: 60.9% |
| O=c1c(-c2ccc(O)cc2O)coc2cc(O)cc(O)c12 | inconclusive: 49.3% |
| O=C(CSc1ccccc1F)NC1CCS(=O)(=O)C1 (stereo unspecified) | inconclusive: 41.5% |
| Cc1cc(C)nc(NC(=O)CCCC(=O)O)c1 | inconclusive: 36.2% |
| O=C(/C=C/c1ccco1)NC(=S)Nc1cccc([N+](=O)[O-])c1 | inconclusive: 49.1% |
| O=C(Nc1ccc(S(=O)(=O)Nc2cnc3ccccc3n2)cc1)c1ccc(Br)o1 | inconclusive: 43% |
| O=S(=O)(NC1c2cccc3cccc(c23)C1Sc1ncccn1)c1ccc(Cl)cc1 (stereo unspecified) | inconclusive: 41.4% |

10 entries from above, comma-delimited:
Structure (SMILES),inhibition
CN(C(=O)Cc1c(C(=O)O)n(C)c2ccccc12)c1ccc(F)cc1,inconclusive: 35.2%
Cc1ccnc(SCC(=O)N2CCC(C(N)=O)CC2)n1,inconclusive: 33.5%
CC1(C)OC(c2ccccc2)=C/C(=C/C=C2C(=O)c3ccccc3C2=O)O1,inconclusive: 36.1%
CN(c1ccccc1C(=O)NCc1ccco1)S(C)(=O)=O,inconclusive: 47.8%
COc1ccc(CNC(=O)CSc2ncnc3ccccc23)cc1OC,inactive: -8.65%
CN1C(=S)SC(/[N+]([O-])=C/c2ccc(Cl)cc2)C1(C)C (stereo unspecified),inconclusive: 50.2%
O=C(OCC(=O)N1CCN(c2ccccc2)CC1)c1ccc2ncsc2c1,inconclusive: 37%
CCOC(=O)C1C(=O)Oc2ccc3ccccc3c2C1C1CCOC1=O (stereo unspecified),inconclusive: 38.2%
O=c1ccnc(SCc2ccccc2Cl)[nH]1,inconclusive: 34.5%
O=C(O)CNC(=O)c1ccc(N2CCOCC2)cc1[N+](=O)[O-],inconclusive: 33.5%

The listing continues:

| Structure (SMILES) | inhibition |
| --- | --- |
| COC(=O)c1c(C(=O)OC)c(-c2cccc(Cl)c2)n2c1CS(=O)C2 (stereo unspecified) | inconclusive: 49.3% |
| O=C(c1cccs1)N1CCCC(c2nc3c(nnn3Cc3ccccc3Cl)c(=O)[nH]2)C1 (stereo unspecified) | inconclusive: 64.2% |
| Cc1ccc(CNC(=O)C2CCCN(S(=O)(=O)c3c(C)noc3C)C2)cc1 (stereo unspecified) | inconclusive: 38.6% |
| O=C(Nc1cc(S(=O)(=O)Nc2ccc(Cl)cc2)ccc1O)c1ccc(S(=O)(=O)N2CCCCCC2)cc1 | inconclusive: 54.6% |
| Cc1ccc(-c2cc(C(=O)NCc3ccccn3)c3ccccc3n2)cc1C | inconclusive: 57.6% |
| Cc1cccc(OCc2nnc(SCC(=O)Nc3ccc(C)c(Cl)c3)o2)c1 | inactive: -12% |
| CC(C)(C)NC(=O)C1Cc2ccccc2CN1C(=O)Nc1cccc(Cl)c1 (stereo unspecified) | inconclusive: 39.2% |
| Cc1ccc(C(=O)Nc2ccc(C(=O)O)cc2)cc1S(=O)(=O)Nc1cccc([N+](=O)[O-])c1 | inconclusive: 34.8% |
| COCCNC(=O)Cn1c(=O)n(Cc2ccc(C(=O)NCCc3ccc(OC)c(OC)c3)cc2)c(=O)c2ccccc21 | inconclusive: 62.7% |
| c1ccc(-c2noc(CCC3CCCC3)n2)cc1 | inactive: -1.6% |
| CSc1cccc(NC(=O)NCc2cccc(CNC(=O)Nc3cccc(SC)c3)c2)c1 | inconclusive: 57.8% |
| CSc1ncnc2sc(C)c(C)c12 | inconclusive: 42.5% |
| O=c1c2ccccc2oc2nc(C3CCCCC3)n(Cc3ccco3)c(=O)c12 | inconclusive: 36.6% |
| Cc1cc(NC(=O)c2cn(C3CCCCC3)c(=O)c3c2c2ccccc2n3C)no1 | inconclusive: 34.2% |
| N#CC1=C(N)N(c2ccccc2)C2=C(C(=O)CCC2)C1c1cccs1 (stereo unspecified) | inconclusive: 50.3% |
| CCc1nc2ccccc2c(C(=O)OCC(=O)NC(=O)c2cccn2C)c1C | inconclusive: 43.2% |
| CCN(CC)S(=O)(=O)c1cccc(C(=O)N/N=C/c2ccccc2OCC(=O)O)c1 | inconclusive: 48.8% |
| O=[N+]([O-])c1cccc(Nc2c3ccccc3nc3ccccc23)c1 | inconclusive: 46.3% |
